Source: paper PMC8233393
No constants are given. Whether binding was seen depends on the method and setting. Binding seen in cells or lysates may run through a third protein. Some entries that bind do so weakly or less than the wild type.

Amino acid sequences for entries named in this document (tags omitted). Residues count along the entry.
UniProt Q02763, residues 23-1124: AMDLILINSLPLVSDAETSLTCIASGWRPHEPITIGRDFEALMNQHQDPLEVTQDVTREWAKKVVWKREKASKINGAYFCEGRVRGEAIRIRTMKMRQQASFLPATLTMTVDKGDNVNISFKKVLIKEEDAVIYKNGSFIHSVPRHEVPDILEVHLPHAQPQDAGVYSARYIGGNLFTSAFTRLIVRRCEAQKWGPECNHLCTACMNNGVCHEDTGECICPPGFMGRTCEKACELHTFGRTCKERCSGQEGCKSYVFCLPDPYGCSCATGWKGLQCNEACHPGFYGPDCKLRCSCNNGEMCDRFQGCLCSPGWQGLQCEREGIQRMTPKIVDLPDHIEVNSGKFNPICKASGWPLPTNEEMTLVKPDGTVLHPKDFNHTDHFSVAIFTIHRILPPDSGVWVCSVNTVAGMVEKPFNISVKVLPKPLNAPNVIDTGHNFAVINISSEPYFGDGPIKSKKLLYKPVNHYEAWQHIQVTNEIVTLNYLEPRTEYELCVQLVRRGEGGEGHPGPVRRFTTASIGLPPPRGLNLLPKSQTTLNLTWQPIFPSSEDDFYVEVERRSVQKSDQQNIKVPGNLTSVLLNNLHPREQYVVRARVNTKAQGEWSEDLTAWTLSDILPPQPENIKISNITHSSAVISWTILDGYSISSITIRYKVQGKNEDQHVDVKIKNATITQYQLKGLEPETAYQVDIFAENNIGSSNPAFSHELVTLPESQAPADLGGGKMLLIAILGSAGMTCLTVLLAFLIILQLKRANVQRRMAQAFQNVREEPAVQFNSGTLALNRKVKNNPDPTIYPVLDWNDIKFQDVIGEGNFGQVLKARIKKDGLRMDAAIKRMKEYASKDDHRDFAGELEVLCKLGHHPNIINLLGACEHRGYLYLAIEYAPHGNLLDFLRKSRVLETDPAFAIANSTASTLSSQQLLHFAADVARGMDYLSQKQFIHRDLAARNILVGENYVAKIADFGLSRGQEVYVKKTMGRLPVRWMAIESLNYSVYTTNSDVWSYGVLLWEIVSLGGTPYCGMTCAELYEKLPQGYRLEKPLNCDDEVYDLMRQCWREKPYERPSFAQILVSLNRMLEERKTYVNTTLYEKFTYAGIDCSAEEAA
UniProt P35590, residues 22-1138: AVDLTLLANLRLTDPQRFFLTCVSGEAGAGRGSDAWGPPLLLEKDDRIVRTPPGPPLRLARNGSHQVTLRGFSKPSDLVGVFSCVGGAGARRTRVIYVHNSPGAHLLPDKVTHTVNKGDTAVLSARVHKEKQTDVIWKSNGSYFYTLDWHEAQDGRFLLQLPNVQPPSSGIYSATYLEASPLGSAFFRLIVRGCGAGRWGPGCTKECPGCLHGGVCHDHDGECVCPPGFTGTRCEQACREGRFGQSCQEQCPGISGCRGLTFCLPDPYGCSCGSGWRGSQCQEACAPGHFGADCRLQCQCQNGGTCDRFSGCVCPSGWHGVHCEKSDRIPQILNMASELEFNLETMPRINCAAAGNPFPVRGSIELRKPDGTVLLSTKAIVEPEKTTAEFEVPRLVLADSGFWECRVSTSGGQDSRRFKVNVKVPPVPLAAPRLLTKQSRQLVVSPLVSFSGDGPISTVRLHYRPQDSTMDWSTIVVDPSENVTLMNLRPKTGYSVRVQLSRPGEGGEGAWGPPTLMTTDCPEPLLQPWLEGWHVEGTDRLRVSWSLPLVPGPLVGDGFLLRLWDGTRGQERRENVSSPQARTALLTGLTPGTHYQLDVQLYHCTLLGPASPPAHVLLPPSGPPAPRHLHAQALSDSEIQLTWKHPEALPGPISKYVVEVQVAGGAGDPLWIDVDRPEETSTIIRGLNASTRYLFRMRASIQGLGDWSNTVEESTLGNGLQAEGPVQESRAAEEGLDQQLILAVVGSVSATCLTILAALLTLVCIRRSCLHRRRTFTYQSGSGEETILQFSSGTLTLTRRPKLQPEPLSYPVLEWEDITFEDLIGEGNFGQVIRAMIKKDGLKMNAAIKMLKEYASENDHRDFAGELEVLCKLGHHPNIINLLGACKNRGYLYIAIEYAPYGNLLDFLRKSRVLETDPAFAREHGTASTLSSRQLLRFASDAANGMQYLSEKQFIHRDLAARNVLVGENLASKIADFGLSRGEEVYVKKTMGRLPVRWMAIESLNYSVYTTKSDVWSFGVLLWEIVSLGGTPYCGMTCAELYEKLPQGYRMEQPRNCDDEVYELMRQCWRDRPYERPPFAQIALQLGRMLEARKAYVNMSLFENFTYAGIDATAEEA

Biological target: TIE2, the other member of the TIE receptor family (endogenous in HMVECs and ST1 cells) (human (endogenous in HMVEC)) (UniProt Q02763)
Assay: co-IP; lysates of control HMVECs and of TIE1-overexpressing ST1 cells, untreated or treated with 100 ng/ml TNF-α; immunoprecipitation with anti-TIE2 antibody (R&D Systems) and protein G agarose in a cold room; TIE1 detected by western blot

Substance | binding
TIE1 overexpressed from the lentiviral construct pCCL-6HF-TIE1 in HMVECs (clone ST1) (from UniProt P35590 22-1138) (receptor) | binds
TIE1, endothelial receptor tyrosine kinase (endogenous in HMVECs) (from UniProt P35590 22-1138) | binds
